PubChem BioAssay AID652259 | Drosophila RNAi Screening Center – 2013
Aim: 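Knock-downs that push a Wingless-driven reporter up or down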 (primary screen). Cells: Drosophila clone 8 imaginal disc epithelial cells. Reagents: long dsRNA against Drosophila genes. Challenge: pathway stimulated by co-transfected Wingless expression plasmid. Read-out: 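Firefly luciferase from a tcf-site Wingless reporter, measured alongside co-transfected Renilla luciferase that tracks transfection; pathway stimulated by a Wingless plasmid; the firefly-to-Renilla ratio is not deposited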. Scale: firefly reporter light: higher = more Wg reporter light, before normalisation; Renilla control light: higher = more transfected or surviving cells. Call rule: 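a knock-down is a candidate when at least two out of four statistical tests show it departing from its plate mean; one test alone signals a weak candidate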. Calls: active = candidate regulator (raises or lowers reporter); inactive = not a candidate.
The deposit covers about 22,000 reagents; shown is an unselected part of those that have a named target and a result. Over the whole deposit, 233 (1.1%) got an active call. 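Light values are raw, unnormalised plate reads; the ratio scores behind the reporter calls were not deposited.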 Entries without a mark were called inactive. Reagents against one gene are numbered here. The record does not give: the amount of reagent, the time to read-out, the dose of the treatment.

E(spl)m3-HLH (Enhancer of split m3, helix-loop-helix)
- firefly reporter light, replicate 1: 16162
- Renilla control light, replicate 1: 5051

Obp69a (Odorant-binding protein 69a)
- firefly reporter light, replicate 1: 3132
- Renilla control light, replicate 1: 872

tud (tudor)
- firefly reporter light, replicate 1: 1735
- firefly reporter light, replicate 2: 7266
- Renilla control light, replicate 1: 541
- Renilla control light, replicate 2: 2779

CG15563
- firefly reporter light, replicate 1: 7441
- Renilla control light, replicate 1: 3174

CG5177
- firefly reporter light, replicate 1: 16489
- Renilla control light, replicate 1: 4721

CG14383
- firefly reporter light, replicate 1: 19192
- Renilla control light, replicate 1: 2917

14-3-3epsilon
- firefly reporter light, replicate 1: 9488
- Renilla control light, replicate 1: 1712

TwdlJ (TweedleJ)
- firefly reporter light, replicate 1: 7184
- Renilla control light, replicate 1: 3897

Kul (Kuzbanian-like)
- firefly reporter light, replicate 1: 4752
- Renilla control light, replicate 1: 2228

Rae1
- firefly reporter light, replicate 1: 10400
- Renilla control light, replicate 1: 2132

inaD (inactivation no afterpotential D)
- firefly reporter light, replicate 1: 3316
- firefly reporter light, replicate 2: 7738
- Renilla control light, replicate 1: 758
- Renilla control light, replicate 2: 3085

Sorted by “firefly reporter light, replicate 1” (low to high): some entries from above
TwdlJ (TweedleJ)
- firefly reporter light, replicate 1: 7184
- Renilla control light, replicate 1: 3897

14-3-3epsilon
- firefly reporter light, replicate 1: 9488
- Renilla control light, replicate 1: 1712

Additional results:
O-fut2 (O-fucosyltransferase 2)
- firefly reporter light, replicate 1: 2938
- firefly reporter light, replicate 2: 4746
- Renilla control light, replicate 1: 1152
- Renilla control light, replicate 2: 2042

mmm (missing minor mitochondria)
- firefly reporter light, replicate 1: 1525
- firefly reporter light, replicate 2: 6456
- Renilla control light, replicate 1: 1451
- Renilla control light, replicate 2: 2962

RpL13 (Ribosomal protein L13)
- firefly reporter light, replicate 1: 3323
- Renilla control light, replicate 1: 1008

grn (grain) #1
- firefly reporter light, replicate 1: 2765
- Renilla control light, replicate 1: 525

grn (grain) #2
- firefly reporter light, replicate 1: 20212
- Renilla control light, replicate 1: 5217

Cenp-C (Centromeric protein-C)
- firefly reporter light, replicate 1: 14745
- Renilla control light, replicate 1: 3161

eIF4E6 (eukaryotic translation initiation factor 4E6)
- firefly reporter light, replicate 1: 4374
- Renilla control light, replicate 1: 2105

CG12147
- firefly reporter light, replicate 1: 10034
- Renilla control light, replicate 1: 1632

ND5 (retired record)
- firefly reporter light, replicate 1: 19065
- Renilla control light, replicate 1: 11217

CG7289
- firefly reporter light, replicate 1: 10227
- Renilla control light, replicate 1: 4170

CG12983
- firefly reporter light, replicate 1: 17757
- Renilla control light, replicate 1: 5626

CG31676
- firefly reporter light, replicate 1: 3108
- firefly reporter light, replicate 2: 8504
- Renilla control light, replicate 1: 1060
- Renilla control light, replicate 2: 3388

unpg (unplugged)
- firefly reporter light, replicate 1: 1453
- firefly reporter light, replicate 2: 5059
- Renilla control light, replicate 1: 556
- Renilla control light, replicate 2: 2630

ghi (ghiberti)
- firefly reporter light, replicate 1: 5337
- firefly reporter light, replicate 2: 7.42e5
- Renilla control light, replicate 1: 2593
- Renilla control light, replicate 2: 3.69e5
